Reference: PubChem BioAssay AID2685 (National Center for Advancing Translational Sciences (NCATS), 2010)
The list shows a part of the results. Further columns of the screen follow, without active or inactive calls. Most of these compounds were active or inconclusive in the main read-out, so they are no random draw. Potencies come from curve fits of mixed quality, noted in brackets.

Assay: qHTS Assay for Lipid Storage Modulators in Drosophila S3 Cells;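 as to cell number change: cells counted by Cell Tracker Red CMTPX staining in the red channel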
Conditions: BODIPY lipid droplet fluorescence, 18-24 h; for cell number change: measured here: cell count max response, cells fed with added oleic acid
Method in brief: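 Drosophila S3 cells loaded with oleic acid (400 uM, as added) and compounds at several concentrations; lipid droplets imaged by 488-nm laser-scanning cytometry, 500–530 nm intensity and object ratio to cell channel. Percent activity normalized to 20 uM Triacsin C.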

[1] = measured here: cell number channel AC50, cells fed with added oleic acid
[2] = measured here: lipid fluorescence (Fed channel) AC50, cells fed with added oleic acid

Row | SMILES | cell number change | AC50 [1] | AC50 [2]
1 | COc1ccc(C(=O)n2c(C)c(CCO)c(=O)n2C)cc1 | 5.13% | 0.116 µM [falling, full curve] | 0.146 µM [falling, full curve]
2 | CNC(=S)/N=C(\Nc1ccc(C)cc1)c1ccccc1 | – | – | 6.51 µM [falling, single point]
3 | Cc1ccc(OCC(=O)NNC(=O)c2ccc(NC(=O)C3CC3)cc2)c(C)c1 | 24.8% | – | 7.08 µM [rising, full curve]
4 | Cc1cc(C)n(-c2c(C)[nH]c3ccccc23)n1 | -11.6% | 0.517 µM [falling, full curve] | 0.00517 µM [falling, full curve, poor fit]
5 | O=C(CSc1nnc(CNC(=O)c2c(F)cccc2F)o1)Nc1ccc2c(c1)OCO2 | -17.2% | – | –
6 | O=C(CNC1CC1)Nc1cc(C(F)(F)F)ccc1Cl | -52.2% | 29.1 µM [falling, single point] | 6.51 µM [rising, partial curve, poor fit]
7 | CC(C)CC(NC(=O)C1CCC(C)CC1)C(=O)N1CCN(c2ccccn2)CC1 (stereo unspecified) | 37.2% | 0.184 µM [rising, partial curve, poor fit] | 29.1 µM [rising, single point]
8 | COc1ccc(Cc2nc(C(=O)Nc3ccc(Cl)cc3)cs2)cc1 | -5.34% | – | –
9 | O=[N+]([O-])c1cccc(S(=O)(=O)Nc2nc3ccccc3nc2Nc2cccc(S(=O)(=O)N3CCCCC3)c2)c1 | -23.6% | – | 11.6 µM [falling, partial curve, poor fit]
10 | Nc1ccc2c3c(cccc13)CC2 | -11.8% | – | 2.31 µM [rising, full curve, poor fit]
11 | COc1ccc(NS(=O)(=O)c2ccc(N)c(C(=O)O)c2)cc1 | – | – | 4.61 µM [falling, full curve]
12 | CCn1ncc(/C=N\NC(=O)c2ccc3c(c2)c(C)c(C)n3Cc2ccccc2)c1C | – | 2.91 µM [rising, partial curve] | –
13 | CCCC(=O)Nc1nc(CC(=O)OCC)cs1 | -45.6% | – | 32.6 µM [falling, partial curve, poor fit]
14 | Cc1ccc(-c2ccc(=O)n(CC(=O)Nc3cccc(C(=O)N4CCN(C)CC4)c3)n2)cc1 | 1.51% | – | 0.517 µM [falling, single point]
15 | Cc1cccc(/C(N)=N/OC(=O)COc2ccccc2Cl)c1 | -5.47% | – | 0.082 µM [falling, full curve, poor fit]
16 | CCN(CC)C(=O)CSC(Nc1cccc(F)c1)=C(C#N)C#N | 23.5% | 4.11 µM [rising, full curve, poor fit] | –

Pulled one by one from above, two records:
Row | SMILES | cell number change | AC50 [1] | AC50 [2]
3 | Cc1ccc(OCC(=O)NNC(=O)c2ccc(NC(=O)C3CC3)cc2)c(C)c1 | 24.8% | – | 7.08 µM [rising, full curve]
8 | COc1ccc(Cc2nc(C(=O)Nc3ccc(Cl)cc3)cs2)cc1 | -5.34% | – | –
